Measured values published in PubChem BioAssay AID743255 (National Center for Advancing Translational Sciences (NCATS), 2014).
Hit rate of the full screen: of about 390,000 compounds, about 910 (0.23%) were called active. This list was built around the results that the source calls inconclusive (neither active nor inactive); the mix of calls is not that of the screen. The call rests on the fitted dose curve; in most records, active means well fitted inhibition curve with a large enough effect; inconclusive means small, poorly fitted or top-dose-only effect; inactive means no such curve, though single readings can be large or run the other way. Potencies beside an inconclusive call are fits to weak or partial responses and may not hold up.

The chains behind the UniProt entries cited, without tags or fusion partners. Where a name states a change or a piece, a line headed by the entry shows the natural chain unless it says otherwise.
UniProt O94782: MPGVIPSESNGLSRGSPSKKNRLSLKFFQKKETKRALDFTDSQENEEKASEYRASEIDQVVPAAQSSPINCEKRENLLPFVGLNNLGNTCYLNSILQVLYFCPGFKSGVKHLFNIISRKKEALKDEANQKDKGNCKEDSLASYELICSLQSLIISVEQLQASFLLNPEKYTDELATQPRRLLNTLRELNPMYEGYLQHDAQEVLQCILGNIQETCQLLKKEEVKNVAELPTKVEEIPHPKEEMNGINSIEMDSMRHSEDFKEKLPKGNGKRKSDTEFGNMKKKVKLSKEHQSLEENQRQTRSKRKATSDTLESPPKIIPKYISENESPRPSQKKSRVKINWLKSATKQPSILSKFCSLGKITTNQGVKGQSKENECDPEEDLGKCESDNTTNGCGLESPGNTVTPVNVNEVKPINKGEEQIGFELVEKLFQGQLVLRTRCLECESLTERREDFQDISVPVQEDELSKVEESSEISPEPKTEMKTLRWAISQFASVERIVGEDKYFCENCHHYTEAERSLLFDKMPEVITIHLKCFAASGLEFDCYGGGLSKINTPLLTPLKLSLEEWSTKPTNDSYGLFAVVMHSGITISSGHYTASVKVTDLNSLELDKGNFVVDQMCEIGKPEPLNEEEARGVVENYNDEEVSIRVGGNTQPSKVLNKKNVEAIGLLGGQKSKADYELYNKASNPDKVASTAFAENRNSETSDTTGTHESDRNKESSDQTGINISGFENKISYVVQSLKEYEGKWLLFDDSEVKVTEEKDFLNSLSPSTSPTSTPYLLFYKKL

Target: Ubiquitin carboxyl-terminal hydrolase 1 (Homo sapiens) (UniProt O94782)
Experiment: Inhibitors of USP1/UAF1: Primary Screen; further: nearly all actives have a fitted effect of over 60% in size
Conditions: recombinant USP1/UAF1, Ub-Rhodamine cleavage fluorescence; series mostly up to 57.1 µM
Procedure, shortened: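 High-throughput fluorogenic screen: 1nM USP1/UAF1 complex, Ub-Rho substrate 150nM final, 50mM HEPES pH 7.8 with 0.5mM EDTA, 0.1 mg/ml BSA, 1mM TCEP and 0.01% Tween-20.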
Potency means the concentration at half of the fitted maximal effect.

Row | SMILES | Potency
1 | Cc1ccccc1CN1CCN(CC(=O)NCc2ccccc2Cl)C1=O | inconclusive: 0.447 µM [inhibitor, full curve, poor fit]
2 | O=C(NCCc1csc(-c2ccc(F)cc2)n1)c1ccc(Br)o1 | inconclusive: 50.1 µM [inhibitor, partial curve, poor fit]
3 | O=C(c1ccc(S(=O)(=O)Nc2ccccc2F)cc1)N1CCN(c2ccccn2)CC1 | inconclusive: 25.1 µM [inhibitor, single point]
4 | O=C(CNC(=O)c1cc(=O)[nH]c2ccc(S(=O)(=O)N3CCOCC3)cc12)Nc1ccc(F)c(F)c1 | inconclusive: 44.7 µM [inhibitor, partial curve]
5 | O=C(NC(=S)N(Cc1ccccc1)c1ccccn1)C1CC1 | inactive
6 | Cc1cccc(NC(=O)c2cc(S(=O)(=O)N3CCC4(CC3)OCCO4)ccc2F)c1 | inconclusive: 0.631 µM [inhibitor, full curve, poor fit]
7 | Cc1cccc(C)c1NC(=O)CN(C)C(=O)C1CCN(c2ncnc3sc(C)c(C)c23)CC1 | inactive
8 | O=C(NCc1ccc(Cl)cc1)C1CCCN(c2ncnc3c2nc2n3CCCCC2)C1 (configuration not stated) | inactive
9 | CCC(=O)Nc1nnc(S(=O)(=O)N2CCc3ccccc32)s1 | inactive
10 | CC(OC(=O)/C=C/c1ccco1)C(=O)NC1CCCCC1 (configuration not stated) | inactive
11 | Cc1ccc(C(=O)Oc2cc(C)[nH]c(=O)c2[N+](=O)[O-])cc1 | inactive
12 | COC(=O)c1cc2occc2n1Cc1nc(-c2ccc(C)cc2)oc1C | inconclusive: 6.31 µM [inhibitor, full curve]
13 | CCOC(=O)/C(C#N)=C/c1cn(CCOc2ccc(OC)cc2)c2ccccc12 | inconclusive: 50.1 µM [inhibitor, partial curve, poor fit]
14 | O=C(Cc1ccc(Cl)cc1)NCC(=O)N1CCCCC1 | inconclusive: 7.08 µM [inhibitor, partial curve, poor fit]
15 | Cc1nc2c(C(=O)NC(C)c3ccccc3)cnn2c(C)c1Cc1ccccc1 (configuration not stated) | inconclusive: 39.8 µM [inhibitor, single point]
16 | CCc1ccc(C(C(=O)NC2CCCC2)N(C(=O)/C=C/C(=O)Nc2cc(C)on2)c2ccccc2C)cc1 (configuration not stated) | inconclusive: 31.6 µM [inhibitor, partial curve]
17 | CC(=O)N1CCCc2cc(S(=O)(=O)N(C)CC(=O)Nc3ccc(Cl)cc3C)ccc21 | inconclusive: 3.55 µM [inhibitor, partial curve]
18 | C=CC1CN(CC(=O)OC)S(=O)(=O)c2ccccc21 (configuration not stated) | inconclusive: 0.126 µM [inhibitor, full curve, poor fit]
19 | O=C1c2ccccc2C(=O)c2c1ncn2-c1ccccc1 | inconclusive: 44.7 µM [inhibitor, partial curve]
20 | ClC(Cl)(c1nnnn1-c1ccccc1)c1nnnn1-c1ccccc1 | inconclusive: 28.2 µM [inhibitor, partial curve, poor fit]
21 | COc1ccc(Br)cc1CNC(=O)C1CCCCN1S(=O)(=O)c1ccc(F)cc1 (configuration not stated) | inactive
22 | CCn1cc(C(=O)NCc2ccccc2)c(=O)c2cc(S(=O)(=O)N3CCCCCC3)ccc21 | inconclusive: 5.62 µM [inhibitor, partial curve]
23 | CCOc1cccc2sc(NC(=O)CCS(=O)(=O)c3ccccc3)nc12 | inactive

Row | SMILES | Potency
24 | CCN(CC)C(=O)C1CCCN(c2ncnc3c2cnn3-c2ccc(Cl)cc2)C1 (configuration not stated) | inconclusive: 35.5 µM [inhibitor, single point]
25 | CC(C)(C)n1nc2c(c1NC(=O)COc1ccc(Cl)cc1)CS(=O)(=O)C2 | inconclusive: 4.47 µM [inhibitor, full curve, poor fit]
26 | COc1ccc(OC)c(C(c2c(C)[nH][nH]c2=O)c2c(C)[nH][nH]c2=O)c1 | inactive
27 | O=C1C(Cc2c[nH]c3ccccc23)NC(=S)N1C1CCCCC1 (configuration not stated) | inconclusive: 1.58 µM [inhibitor, full curve, poor fit]
28 | CN(C)S(=O)(=O)c1cccc(NC(=S)Nc2ccc(Cl)cc2Cl)c1 | inactive
29 | O=C1NC(=O)C2(CCCCCCC2)N1 | inconclusive: 12.6 µM [inhibitor, partial curve]
30 | CN1CCC(N(C)C(=S)NC(=O)c2cc(-c3cccc(Br)c3)nc3ccccc23)CC1 | inactive
31 | COc1cc(Cl)cc(C(c2c(C(=O)O)[nH]c3ccccc23)c2c(C(=O)O)[nH]c3ccccc23)c1O | inconclusive: 50.1 µM [inhibitor, partial curve, poor fit]
32 | O=C(O)Cc1sc(N/N=C\c2ccncc2)nc1-c1ccccc1 | inactive
33 | COc1cccc(CNC(=O)CCNS(=O)(=O)c2ccc3c(c2)oc(=O)n3C)c1 | inconclusive: 39.8 µM [inhibitor, partial curve]
34 | CCOC(=O)c1[nH]cnc1C(=O)Nc1ccc(F)cc1 | inconclusive: 0.282 µM [inhibitor, full curve, poor fit]
35 | N#C/C(=C\c1ccc(-c2cc(Cl)ccc2Cl)o1)C(=O)Nc1ccccc1C(=O)O | inactive
36 | O=C(Nc1cccc(S(=O)(=O)NC2=NCCC2)c1)c1cc(-c2ccco2)nc2ccccc12 | inconclusive: 44.7 µM [inhibitor, partial curve, poor fit]
37 | COc1ccc2[nH]cc(/C=C/c3cc[n+](C)cc3)c2c1 | inconclusive: 25.1 µM [inhibitor, partial curve]
38 | CCOC(=O)N1CCN(C(=O)CN2C(=O)COc3ccc(C(C)(C)C)cc32)CC1 | inconclusive: 0.251 µM [inhibitor, full curve, poor fit]
39 | Cc1cnc(NC(=O)CSc2nnc(COc3ccccc3)o2)s1 | inconclusive: 5.62 µM [inhibitor, partial curve, poor fit]
40 | COc1cccc(C(=O)Nc2ccc(NC(=O)c3ccc(C(C)(C)C)cc3)cc2)c1 | inconclusive: 4.47 µM [inhibitor, single point]
41 | COc1ccc(N(C(=O)C(C)C)S(=O)(=O)c2cccc([N+](=O)[O-])c2)cc1 | inconclusive: 5.01 µM [inhibitor, partial curve, poor fit]
42 | NC(=O)c1ccccc1NC(=O)Nc1ccccc1Cl | inactive
43 | Cc1ccc(-c2nc(Nc3ccc(O)cc3)c3ccccc3n2)cc1 | inactive
44 | Cc1nn(-c2ccccc2)c2sc(C(=O)Nc3cccc(O)c3)cc12 | inconclusive: 1000 µM [inhibitor, partial curve, poor fit]
45 | FC(F)(F)c1ccccc1NC(=S)Nc1ccccc1 | inactive
46 | CCN(c1ccccc1)S(=O)(=O)c1ccc(N2CCN(c3ccc(O)cc3)CC2)nc1 | inconclusive: 12.6 µM [inhibitor, partial curve, poor fit]

Reprinted: nos. 26 to 44
Row | SMILES | Potency
26 | COc1ccc(OC)c(C(c2c(C)[nH][nH]c2=O)c2c(C)[nH][nH]c2=O)c1 | inactive
27 | O=C1C(Cc2c[nH]c3ccccc23)NC(=S)N1C1CCCCC1 (configuration not stated) | inconclusive: 1.58 µM [inhibitor, full curve, poor fit]
28 | CN(C)S(=O)(=O)c1cccc(NC(=S)Nc2ccc(Cl)cc2Cl)c1 | inactive
29 | O=C1NC(=O)C2(CCCCCCC2)N1 | inconclusive: 12.6 µM [inhibitor, partial curve]
30 | CN1CCC(N(C)C(=S)NC(=O)c2cc(-c3cccc(Br)c3)nc3ccccc23)CC1 | inactive
31 | COc1cc(Cl)cc(C(c2c(C(=O)O)[nH]c3ccccc23)c2c(C(=O)O)[nH]c3ccccc23)c1O | inconclusive: 50.1 µM [inhibitor, partial curve, poor fit]
32 | O=C(O)Cc1sc(N/N=C\c2ccncc2)nc1-c1ccccc1 | inactive
33 | COc1cccc(CNC(=O)CCNS(=O)(=O)c2ccc3c(c2)oc(=O)n3C)c1 | inconclusive: 39.8 µM [inhibitor, partial curve]
34 | CCOC(=O)c1[nH]cnc1C(=O)Nc1ccc(F)cc1 | inconclusive: 0.282 µM [inhibitor, full curve, poor fit]
35 | N#C/C(=C\c1ccc(-c2cc(Cl)ccc2Cl)o1)C(=O)Nc1ccccc1C(=O)O | inactive
36 | O=C(Nc1cccc(S(=O)(=O)NC2=NCCC2)c1)c1cc(-c2ccco2)nc2ccccc12 | inconclusive: 44.7 µM [inhibitor, partial curve, poor fit]
37 | COc1ccc2[nH]cc(/C=C/c3cc[n+](C)cc3)c2c1 | inconclusive: 25.1 µM [inhibitor, partial curve]
38 | CCOC(=O)N1CCN(C(=O)CN2C(=O)COc3ccc(C(C)(C)C)cc32)CC1 | inconclusive: 0.251 µM [inhibitor, full curve, poor fit]
39 | Cc1cnc(NC(=O)CSc2nnc(COc3ccccc3)o2)s1 | inconclusive: 5.62 µM [inhibitor, partial curve, poor fit]
40 | COc1cccc(C(=O)Nc2ccc(NC(=O)c3ccc(C(C)(C)C)cc3)cc2)c1 | inconclusive: 4.47 µM [inhibitor, single point]
41 | COc1ccc(N(C(=O)C(C)C)S(=O)(=O)c2cccc([N+](=O)[O-])c2)cc1 | inconclusive: 5.01 µM [inhibitor, partial curve, poor fit]
42 | NC(=O)c1ccccc1NC(=O)Nc1ccccc1Cl | inactive
43 | Cc1ccc(-c2nc(Nc3ccc(O)cc3)c3ccccc3n2)cc1 | inactive
44 | Cc1nn(-c2ccccc2)c2sc(C(=O)Nc3cccc(O)c3)cc12 | inconclusive: 1000 µM [inhibitor, partial curve, poor fit]

(listing goes on)

Row | SMILES | Potency
47 | COc1cc(C)c(Cl)cc1S(=O)(=O)NCc1ccco1 | inactive
48 | Cc1cccc(-c2nnc(C(C)Nc3cccc(C(=O)NC4CC4)c3)o2)c1 (configuration not stated) | inactive
49 | COc1cc(OC)c(Nc2c3c(nc4nc(-c5cccs5)nn24)CCCC3)cc1Cl | inconclusive: 20 µM [inhibitor, partial curve, poor fit]
50 | CCOc1ccc(NS(=O)(=O)c2ccc3nc(-c4ccccc4)[nH]c3c2)cc1 | inconclusive: 39.8 µM [inhibitor, partial curve, poor fit]
51 | COc1ccc2sc(-c3ccc(SC)cc3)c(C#CC(C)(C)O)c2c1 | inconclusive: 44.7 µM [inhibitor, partial curve, poor fit]
52 | OCCNc1cnc2ccccc2n1 | inactive
53 | CCCCC1=CC2=CC(=O)C(C)(OC(=O)CC)C(=O)C2=CN1CC(C)C (configuration not stated) | inactive
54 | COc1ccc(-c2nc3scc(CCNC(=O)Cc4ccc(F)cc4)n3n2)cc1 | inconclusive: 0.708 µM [inhibitor, full curve, poor fit]
55 | O=C(Nc1ccccc1Cl)c1cc2c(-c3ccccc3)nn(-c3ccccc3)c2s1 | inactive
56 | O=C(CSc1nc(-c2cccs2)nc2cc(=O)[nH]n12)Nc1ccccc1Cl | inconclusive: 8.91 µM [inhibitor, full curve, poor fit]
57 | COC(=O)c1nc(NC(=O)c2cc(OC)c(OC)c(OC)c2)n[nH]1 | inconclusive: 50.1 µM [inhibitor, single point]
58 | COc1cccc(-c2nc(=S)c3c(n2Cc2ccco2)CCCC3)c1 | inconclusive: 39.8 µM [inhibitor, single point]
59 | O=C(COCc1cc(-c2ccc3c(c2)OCO3)on1)NCc1ccc(F)cc1 | inactive
60 | CCN(CC(=O)Nc1c(F)cccc1F)C(=O)CCc1nc2sc3c(c2c(=O)[nH]1)CCCC3 | inactive
61 | O=C(NCC1CCCO1)c1ccc2c(c1)OCO2 (configuration not stated) | inconclusive: 31.6 µM [inhibitor, single point]
62 | Cc1ccc2nc(-c3ccc(Cl)c(NC(=O)c4ccc(Br)o4)c3)oc2c1 | inconclusive: 2 µM [inhibitor, full curve]
63 | O=S(=O)(O)c1cc2oc(-c3ccccc3)nc2c2ccccc12 | inconclusive: 79.4 µM [inhibitor, partial curve, poor fit]
64 | CCOc1ccc(C(=O)Nc2cccc(-c3nc4cccnc4s3)c2C)cc1OCC | inactive
65 | CC(C)Oc1ccc(CSc2nnc3n(C)c(=O)c4c5c(sc4n23)CCCC5)cc1 | inconclusive: 5.01 µM [inhibitor, partial curve, poor fit]
66 | O=C(OCc1cc(=O)n2nc(-c3cccs3)sc2n1)c1ccc(F)cc1 | inconclusive: 50.1 µM [inhibitor, partial curve, poor fit]
67 | Cn1nc(C(F)(F)F)c(-c2cccc(C(F)(F)F)c2)c1NC(=O)Nc1ccc(F)cc1 | inconclusive: 25.1 µM [inhibitor, single point]
